This is one part of the list. Most entries show no effect beyond the scatter of the controls.
Compound: Cc1nc(Nc2ncc(C(=O)Nc3c(C)cccc3Cl)s2)cc(N2CCN(CCO)CC2)n1 [dasatinib]
Assay: log2 fold change of tryptic peptide abundance, ligand vs vehicle (limited proteolysis) (log2 ratio); higher = more trypsin-susceptible (destabilized)
Conditions: ligand concentration: 5 uM; sample: K562 cleared lysate

The chains behind the UniProt entries cited, without tags or fusion partners. Where a name states a change or a piece, a line headed by the entry shows the natural chain unless it says otherwise.
UniProt Q9UKN5: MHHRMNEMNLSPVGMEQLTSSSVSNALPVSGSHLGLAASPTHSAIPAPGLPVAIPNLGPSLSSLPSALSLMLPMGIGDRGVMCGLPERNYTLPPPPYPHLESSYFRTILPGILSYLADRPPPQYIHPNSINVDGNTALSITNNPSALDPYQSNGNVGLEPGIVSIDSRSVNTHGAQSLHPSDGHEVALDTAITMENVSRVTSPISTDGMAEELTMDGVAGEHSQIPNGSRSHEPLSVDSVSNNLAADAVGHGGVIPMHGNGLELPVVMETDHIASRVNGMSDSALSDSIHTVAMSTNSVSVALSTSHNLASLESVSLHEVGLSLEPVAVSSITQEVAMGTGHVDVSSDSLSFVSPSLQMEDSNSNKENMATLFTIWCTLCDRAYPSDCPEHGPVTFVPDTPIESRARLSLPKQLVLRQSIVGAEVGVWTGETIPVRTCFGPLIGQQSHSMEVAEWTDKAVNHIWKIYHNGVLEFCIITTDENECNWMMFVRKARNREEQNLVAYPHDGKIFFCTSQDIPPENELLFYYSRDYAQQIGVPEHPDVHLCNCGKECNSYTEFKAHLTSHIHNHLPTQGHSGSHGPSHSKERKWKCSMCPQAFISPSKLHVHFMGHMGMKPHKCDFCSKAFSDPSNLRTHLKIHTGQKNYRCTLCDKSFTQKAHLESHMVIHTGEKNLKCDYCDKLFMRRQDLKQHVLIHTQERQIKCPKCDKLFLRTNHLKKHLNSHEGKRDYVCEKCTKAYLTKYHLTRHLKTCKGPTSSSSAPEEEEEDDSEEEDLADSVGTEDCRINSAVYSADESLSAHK
UniProt Q9UN79: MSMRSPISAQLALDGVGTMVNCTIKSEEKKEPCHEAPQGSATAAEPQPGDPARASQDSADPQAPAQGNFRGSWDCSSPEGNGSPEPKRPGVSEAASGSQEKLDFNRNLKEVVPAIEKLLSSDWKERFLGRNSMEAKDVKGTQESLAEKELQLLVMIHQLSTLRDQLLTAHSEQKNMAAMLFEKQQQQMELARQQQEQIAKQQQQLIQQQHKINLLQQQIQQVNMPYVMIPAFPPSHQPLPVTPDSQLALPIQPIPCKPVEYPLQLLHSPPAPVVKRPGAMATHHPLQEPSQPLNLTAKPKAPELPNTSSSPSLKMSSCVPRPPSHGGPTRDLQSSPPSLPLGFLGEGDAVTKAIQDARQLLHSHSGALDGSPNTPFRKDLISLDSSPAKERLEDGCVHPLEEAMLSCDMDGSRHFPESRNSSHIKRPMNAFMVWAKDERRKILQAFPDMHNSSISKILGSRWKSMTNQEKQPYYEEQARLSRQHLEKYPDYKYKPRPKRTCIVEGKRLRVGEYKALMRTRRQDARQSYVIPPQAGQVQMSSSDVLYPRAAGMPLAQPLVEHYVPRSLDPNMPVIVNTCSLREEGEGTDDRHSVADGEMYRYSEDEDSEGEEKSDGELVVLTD
UniProt Q9UKX7: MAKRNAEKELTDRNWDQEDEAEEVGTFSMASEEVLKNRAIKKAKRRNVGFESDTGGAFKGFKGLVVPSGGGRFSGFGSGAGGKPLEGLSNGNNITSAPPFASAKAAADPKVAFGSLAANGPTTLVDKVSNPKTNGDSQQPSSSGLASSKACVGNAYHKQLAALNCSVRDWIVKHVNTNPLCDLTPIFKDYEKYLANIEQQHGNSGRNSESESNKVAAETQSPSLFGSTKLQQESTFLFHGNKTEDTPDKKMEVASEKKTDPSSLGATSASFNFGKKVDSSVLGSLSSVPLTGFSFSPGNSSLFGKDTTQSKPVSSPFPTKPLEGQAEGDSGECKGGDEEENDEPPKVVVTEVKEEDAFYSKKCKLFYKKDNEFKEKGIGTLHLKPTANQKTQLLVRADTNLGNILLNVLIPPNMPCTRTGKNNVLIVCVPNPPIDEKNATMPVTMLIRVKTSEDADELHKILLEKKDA
UniProt Q9Y232: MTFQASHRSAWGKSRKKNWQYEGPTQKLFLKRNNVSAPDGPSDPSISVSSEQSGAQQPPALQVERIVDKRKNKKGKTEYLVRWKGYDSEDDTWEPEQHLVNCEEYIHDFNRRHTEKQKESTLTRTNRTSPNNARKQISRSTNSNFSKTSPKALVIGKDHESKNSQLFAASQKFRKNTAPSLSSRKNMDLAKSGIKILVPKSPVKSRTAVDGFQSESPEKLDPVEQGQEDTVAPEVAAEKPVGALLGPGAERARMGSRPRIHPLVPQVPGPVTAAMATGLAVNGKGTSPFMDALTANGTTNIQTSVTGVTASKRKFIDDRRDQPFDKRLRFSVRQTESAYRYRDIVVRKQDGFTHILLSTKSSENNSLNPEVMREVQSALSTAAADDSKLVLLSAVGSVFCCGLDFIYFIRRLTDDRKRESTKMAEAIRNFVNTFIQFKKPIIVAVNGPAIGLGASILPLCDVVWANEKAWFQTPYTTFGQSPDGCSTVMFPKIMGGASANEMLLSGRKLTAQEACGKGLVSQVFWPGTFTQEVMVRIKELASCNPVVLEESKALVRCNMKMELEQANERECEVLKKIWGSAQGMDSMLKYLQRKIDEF
UniProt Q9UPS6, whole entry: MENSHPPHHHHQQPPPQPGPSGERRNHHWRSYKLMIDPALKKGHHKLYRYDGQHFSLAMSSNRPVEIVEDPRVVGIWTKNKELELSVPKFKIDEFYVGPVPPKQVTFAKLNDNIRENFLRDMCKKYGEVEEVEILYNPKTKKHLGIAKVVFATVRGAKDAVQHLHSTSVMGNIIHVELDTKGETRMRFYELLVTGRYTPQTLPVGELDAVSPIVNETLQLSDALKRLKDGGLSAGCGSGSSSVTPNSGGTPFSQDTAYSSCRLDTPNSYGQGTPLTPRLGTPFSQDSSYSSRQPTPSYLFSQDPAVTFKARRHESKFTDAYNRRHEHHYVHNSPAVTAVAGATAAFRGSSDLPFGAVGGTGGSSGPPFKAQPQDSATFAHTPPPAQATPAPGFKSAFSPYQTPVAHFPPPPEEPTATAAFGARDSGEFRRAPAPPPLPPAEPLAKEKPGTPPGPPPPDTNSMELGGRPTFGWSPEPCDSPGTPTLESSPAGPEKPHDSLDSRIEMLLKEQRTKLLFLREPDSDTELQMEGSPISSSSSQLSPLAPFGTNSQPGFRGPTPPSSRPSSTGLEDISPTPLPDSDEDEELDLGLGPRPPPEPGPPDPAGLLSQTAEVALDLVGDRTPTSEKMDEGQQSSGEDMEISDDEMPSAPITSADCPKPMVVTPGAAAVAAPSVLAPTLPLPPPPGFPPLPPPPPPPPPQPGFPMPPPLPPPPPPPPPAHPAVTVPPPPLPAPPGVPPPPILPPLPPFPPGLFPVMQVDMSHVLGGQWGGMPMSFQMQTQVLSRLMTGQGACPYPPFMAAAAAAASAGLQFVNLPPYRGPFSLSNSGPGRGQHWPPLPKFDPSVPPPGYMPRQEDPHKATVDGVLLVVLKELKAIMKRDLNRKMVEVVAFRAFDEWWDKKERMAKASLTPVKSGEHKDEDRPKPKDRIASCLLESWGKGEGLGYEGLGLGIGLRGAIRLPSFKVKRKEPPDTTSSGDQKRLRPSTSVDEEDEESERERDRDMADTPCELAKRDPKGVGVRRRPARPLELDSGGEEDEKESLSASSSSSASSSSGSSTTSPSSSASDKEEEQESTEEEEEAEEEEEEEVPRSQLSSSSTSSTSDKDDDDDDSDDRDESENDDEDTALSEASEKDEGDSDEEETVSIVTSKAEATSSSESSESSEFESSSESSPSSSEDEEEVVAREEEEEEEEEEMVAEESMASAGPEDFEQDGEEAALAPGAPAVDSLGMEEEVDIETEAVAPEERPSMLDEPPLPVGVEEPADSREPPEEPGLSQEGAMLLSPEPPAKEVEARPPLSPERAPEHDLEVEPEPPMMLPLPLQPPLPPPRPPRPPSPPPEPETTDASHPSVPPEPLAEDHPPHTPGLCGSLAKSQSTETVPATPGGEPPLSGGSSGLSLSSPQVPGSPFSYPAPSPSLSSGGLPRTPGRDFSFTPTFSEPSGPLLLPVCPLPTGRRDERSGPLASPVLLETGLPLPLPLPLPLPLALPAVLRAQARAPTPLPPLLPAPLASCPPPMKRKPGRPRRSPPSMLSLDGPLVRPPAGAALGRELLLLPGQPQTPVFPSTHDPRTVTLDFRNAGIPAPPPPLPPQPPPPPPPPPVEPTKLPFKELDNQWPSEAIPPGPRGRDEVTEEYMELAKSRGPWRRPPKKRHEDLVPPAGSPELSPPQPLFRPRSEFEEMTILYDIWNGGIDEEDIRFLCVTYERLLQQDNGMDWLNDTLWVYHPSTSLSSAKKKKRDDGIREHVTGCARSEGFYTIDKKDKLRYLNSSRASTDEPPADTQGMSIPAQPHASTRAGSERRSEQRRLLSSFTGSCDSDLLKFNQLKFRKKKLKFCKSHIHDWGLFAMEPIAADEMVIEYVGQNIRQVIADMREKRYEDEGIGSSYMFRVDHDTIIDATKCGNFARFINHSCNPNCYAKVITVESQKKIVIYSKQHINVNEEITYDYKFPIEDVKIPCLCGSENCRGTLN
UniProt Q9UNE7: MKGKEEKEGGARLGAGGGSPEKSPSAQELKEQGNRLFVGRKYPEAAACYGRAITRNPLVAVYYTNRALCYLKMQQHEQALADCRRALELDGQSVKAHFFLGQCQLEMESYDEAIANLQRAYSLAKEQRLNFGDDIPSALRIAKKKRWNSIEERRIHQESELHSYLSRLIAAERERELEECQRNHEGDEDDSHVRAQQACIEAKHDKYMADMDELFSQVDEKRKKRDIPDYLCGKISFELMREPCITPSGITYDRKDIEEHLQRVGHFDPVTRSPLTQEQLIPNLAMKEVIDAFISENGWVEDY
UniProt Q9UK11: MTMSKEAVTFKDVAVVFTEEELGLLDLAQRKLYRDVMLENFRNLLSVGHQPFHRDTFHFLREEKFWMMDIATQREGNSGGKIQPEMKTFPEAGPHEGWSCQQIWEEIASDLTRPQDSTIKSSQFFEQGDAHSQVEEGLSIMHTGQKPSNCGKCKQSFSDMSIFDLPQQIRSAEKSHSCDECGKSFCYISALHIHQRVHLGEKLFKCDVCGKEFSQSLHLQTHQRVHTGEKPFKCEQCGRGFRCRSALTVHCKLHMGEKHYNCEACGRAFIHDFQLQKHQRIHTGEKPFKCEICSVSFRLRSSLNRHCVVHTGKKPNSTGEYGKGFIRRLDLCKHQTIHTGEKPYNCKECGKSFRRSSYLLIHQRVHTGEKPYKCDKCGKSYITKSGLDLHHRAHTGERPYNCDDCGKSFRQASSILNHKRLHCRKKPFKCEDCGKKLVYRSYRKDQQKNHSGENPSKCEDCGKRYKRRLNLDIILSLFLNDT
UniProt Q9UPZ3: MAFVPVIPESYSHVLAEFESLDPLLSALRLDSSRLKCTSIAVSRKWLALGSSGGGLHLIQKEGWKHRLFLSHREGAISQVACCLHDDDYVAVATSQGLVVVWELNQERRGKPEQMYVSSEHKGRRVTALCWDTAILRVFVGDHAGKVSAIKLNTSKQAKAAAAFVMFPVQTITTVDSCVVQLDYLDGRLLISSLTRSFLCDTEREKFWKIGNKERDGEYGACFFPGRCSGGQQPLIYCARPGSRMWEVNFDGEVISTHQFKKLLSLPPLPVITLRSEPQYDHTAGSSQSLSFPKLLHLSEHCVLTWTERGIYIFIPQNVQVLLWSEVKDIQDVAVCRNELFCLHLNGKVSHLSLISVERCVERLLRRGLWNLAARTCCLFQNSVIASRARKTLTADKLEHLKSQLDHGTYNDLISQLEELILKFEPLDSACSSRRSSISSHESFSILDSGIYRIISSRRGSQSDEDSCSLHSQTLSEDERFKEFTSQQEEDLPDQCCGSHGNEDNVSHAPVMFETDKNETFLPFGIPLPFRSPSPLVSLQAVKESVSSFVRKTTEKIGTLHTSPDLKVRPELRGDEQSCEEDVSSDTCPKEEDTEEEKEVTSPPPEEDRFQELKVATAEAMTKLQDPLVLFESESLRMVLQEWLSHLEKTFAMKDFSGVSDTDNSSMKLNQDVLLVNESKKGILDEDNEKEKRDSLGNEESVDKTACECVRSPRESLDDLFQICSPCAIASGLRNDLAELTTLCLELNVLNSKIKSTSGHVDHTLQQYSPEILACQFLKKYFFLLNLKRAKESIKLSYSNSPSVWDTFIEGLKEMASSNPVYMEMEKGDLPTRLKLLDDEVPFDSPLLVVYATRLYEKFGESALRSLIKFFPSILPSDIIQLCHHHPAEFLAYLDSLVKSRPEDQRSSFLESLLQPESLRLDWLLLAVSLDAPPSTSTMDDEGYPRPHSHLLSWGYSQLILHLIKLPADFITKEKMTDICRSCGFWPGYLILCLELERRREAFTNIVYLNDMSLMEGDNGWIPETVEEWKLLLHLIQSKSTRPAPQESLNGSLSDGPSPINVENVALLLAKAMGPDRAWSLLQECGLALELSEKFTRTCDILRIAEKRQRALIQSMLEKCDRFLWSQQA
UniProt Q9UL25: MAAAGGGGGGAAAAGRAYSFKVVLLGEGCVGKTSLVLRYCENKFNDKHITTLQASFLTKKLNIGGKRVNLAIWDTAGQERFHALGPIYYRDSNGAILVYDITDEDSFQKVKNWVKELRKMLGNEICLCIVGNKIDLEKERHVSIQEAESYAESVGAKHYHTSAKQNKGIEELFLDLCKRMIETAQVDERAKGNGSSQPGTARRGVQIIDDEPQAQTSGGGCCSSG

Target	log2 fold change
UniProt Q9UKN5 (peptide sequence: GVMCGLPER, peptide start residue: 80)	-0.299
ANAPC5 (peptide sequence: KAEALEAAIENLNEAK, peptide start residue: 683) (UniProt Q9UJX4)	-0.405
SOX13 (peptide sequence: QQQQLIQQQHK, peptide start residue: 201) (UniProt Q9UN79)	-0.0356
NUP50 (peptide sequence: GIGTLHLKPTANQK, peptide start residue: 377) (UniProt Q9UKX7)	-0.147
PIN4 (peptide sequence: TKFGYHIIMVEGR, peptide start residue: 118) (UniProt Q9Y237)	-0.107
SLC39A10 (peptide sequence: NNAIISLR, peptide start residue: 318) (UniProt Q9ULF5)	0.371
PSME2 (peptide sequence: IVNPKGEEKPSMY, peptide start residue: 227) (UniProt Q9UL46)	0.209
CDYL (peptide sequence: MELEQANERECEVLK, peptide start residue: 561) (UniProt Q9Y232)	0.3
PPT2 (peptide sequence: WLFPTSMR, peptide start residue: 151) (UniProt Q9UMR5)	-0.336
SETD1B (peptide sequence: KYGEVEEVEILYNPK, peptide start residue: 125) (UniProt Q9UPS6)	0.288
UniProt Q9UPN4 (peptide sequence: TRKEEAWLLNR, peptide start residue: 874)	-0.308
CNOT6 (peptide sequence: ESIEMPSGKPHLGTEK, peptide start residue: 337) (UniProt Q9ULM6)	0.23
NDRG2 (peptide sequence: LDPTQTSFLK, peptide start residue: 278) (UniProt Q9UN36)	0.00766
STUB1 (peptide sequence: LGAGGGSPEKSPSAQELK, peptide start residue: 13) (UniProt Q9UNE7)	0.124
VPS28 (peptide sequence: QVQGSEISSIDEFCRK, peptide start residue: 83) (UniProt Q9UK41)	-0.166
UniProt Q9ULK2 (peptide sequence: LHCSDNVDLEEAGK, peptide start residue: 56)	0.757
SH3BGRL2 (peptide sequence: ESNTVFSFLGLKPR, peptide start residue: 87) (UniProt Q9UJC5)	-0.374
ISY1 (peptide sequence: RPFLASECTELPK, peptide start residue: 29) (UniProt Q9ULR0)	0.0972
UniProt Q9UK11 (peptide sequence: DVMLENFR, peptide start residue: 35)	-0.235
BAG5 (peptide sequence: KQPSLPLSEDAHPSVAK, peptide start residue: 169) (UniProt Q9UL15)	0.228
UniProt Q9UL16 (peptide sequence: LQHANELR, peptide start residue: 472)	-0.134
ZNF639 (peptide sequence: CSDCLMR, peptide start residue: 462) (UniProt Q9UID6)	0.789
HPS5 (peptide sequence: ALIQSMLEK, peptide start residue: 1111) (UniProt Q9UPZ3)	-0.278
RAB21 (peptide sequence: GNGSSQPGTAR, peptide start residue: 192) (UniProt Q9UL25)	0.0658
ZMYND8 (peptide sequence: SRFQLNLDKTIESCK, peptide start residue: 554) (UniProt Q9ULU4)	0.375
TLK1 (peptide sequence: ATEVQFPVKPVVSSEAK, peptide start residue: 692) (UniProt Q9UKI8)	0.153
UniProt Q9ULH7 (peptide sequence: GLPVSGTKPDLIER, peptide start residue: 405)	-0.182
TTF2 (peptide sequence: HSEAADSPR, peptide start residue: 902) (UniProt Q9UNY4)	0.412

Two neighbouring entries out of the list so far, for reference:
Target	log2 fold change
SLC39A10 (peptide sequence: NNAIISLR, peptide start residue: 318) (UniProt Q9ULF5)	0.371
PSME2 (peptide sequence: IVNPKGEEKPSMY, peptide start residue: 227) (UniProt Q9UL46)	0.209

From the supplement of paper PMC12819154, “High-throughput peptide-centric local stability assay extends protein–ligand identification to membrane proteins, tissues and bacteria” (Nature Structural & Molecular Biology, 2025)
